Consider four molecules from article PMC10807196.

By UniProt entry, the sequences of proteins in these tests, tags left out. Residues count along the entry.
UniProt Q12864, residues 23-832: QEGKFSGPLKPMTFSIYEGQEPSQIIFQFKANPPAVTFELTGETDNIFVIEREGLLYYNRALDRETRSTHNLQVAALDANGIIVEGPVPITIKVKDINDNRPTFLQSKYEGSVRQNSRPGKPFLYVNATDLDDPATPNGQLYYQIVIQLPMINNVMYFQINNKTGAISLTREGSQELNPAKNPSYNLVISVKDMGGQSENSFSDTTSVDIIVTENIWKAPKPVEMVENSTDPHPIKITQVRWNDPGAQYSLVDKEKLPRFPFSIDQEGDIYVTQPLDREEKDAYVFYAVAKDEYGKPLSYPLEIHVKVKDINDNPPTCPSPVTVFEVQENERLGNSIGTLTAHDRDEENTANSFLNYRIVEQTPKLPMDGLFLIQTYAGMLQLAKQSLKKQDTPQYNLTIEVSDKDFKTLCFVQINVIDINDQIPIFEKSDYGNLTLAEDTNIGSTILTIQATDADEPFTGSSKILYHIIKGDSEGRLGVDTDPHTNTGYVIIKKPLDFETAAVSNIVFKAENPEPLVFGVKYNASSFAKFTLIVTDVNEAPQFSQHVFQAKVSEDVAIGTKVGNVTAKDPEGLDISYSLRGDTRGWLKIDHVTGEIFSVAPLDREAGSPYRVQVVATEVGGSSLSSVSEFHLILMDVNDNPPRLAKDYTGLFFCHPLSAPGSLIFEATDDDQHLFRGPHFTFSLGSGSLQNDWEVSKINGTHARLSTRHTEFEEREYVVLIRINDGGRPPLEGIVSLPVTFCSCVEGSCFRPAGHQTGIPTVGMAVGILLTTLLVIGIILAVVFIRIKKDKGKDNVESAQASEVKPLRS
UniProt P35222: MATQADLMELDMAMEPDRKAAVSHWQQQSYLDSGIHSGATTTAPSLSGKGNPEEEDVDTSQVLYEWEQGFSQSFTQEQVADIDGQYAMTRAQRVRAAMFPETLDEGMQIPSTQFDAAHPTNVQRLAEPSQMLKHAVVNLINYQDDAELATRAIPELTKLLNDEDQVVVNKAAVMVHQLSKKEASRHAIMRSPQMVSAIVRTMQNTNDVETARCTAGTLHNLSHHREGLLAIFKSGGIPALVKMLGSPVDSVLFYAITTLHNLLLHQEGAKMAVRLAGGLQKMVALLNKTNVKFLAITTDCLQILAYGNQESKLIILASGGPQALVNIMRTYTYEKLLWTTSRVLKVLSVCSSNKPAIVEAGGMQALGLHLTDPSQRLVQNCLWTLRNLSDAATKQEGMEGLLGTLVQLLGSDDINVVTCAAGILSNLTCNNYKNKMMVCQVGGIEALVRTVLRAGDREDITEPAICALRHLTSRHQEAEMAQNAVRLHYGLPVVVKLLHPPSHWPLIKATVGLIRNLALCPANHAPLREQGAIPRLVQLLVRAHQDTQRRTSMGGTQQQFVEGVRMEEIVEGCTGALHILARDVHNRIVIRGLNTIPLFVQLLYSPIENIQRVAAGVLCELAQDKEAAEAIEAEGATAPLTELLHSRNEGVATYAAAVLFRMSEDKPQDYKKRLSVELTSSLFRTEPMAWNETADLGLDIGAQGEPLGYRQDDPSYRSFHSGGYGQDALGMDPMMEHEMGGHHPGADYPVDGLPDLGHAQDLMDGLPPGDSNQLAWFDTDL

For assay [1], the target named is Cadherin-17 (CDH17), endogenous (human (endogenous in KM12SM and SW620)) (UniProt Q12864). In words: co-IP; KM12SM and SW620 lysates (1% Igepal, 100 mM NaCl, 2 mM MgCl2, 10% glycerol, 50 mM Tris-HCl), 1 mg lysate with Protein G-sepharose and anti-CDH17 or control antibodies for 16 h; Western blot; also after control, α2 integrin or DSC1 siRNA.
Assay [2] deals with T1, desmocollin-1 (DSC1) (human (endogenous in RKO, HT-29, KM12SM and SW620)) (UniProt Q08554).
T1 sequence: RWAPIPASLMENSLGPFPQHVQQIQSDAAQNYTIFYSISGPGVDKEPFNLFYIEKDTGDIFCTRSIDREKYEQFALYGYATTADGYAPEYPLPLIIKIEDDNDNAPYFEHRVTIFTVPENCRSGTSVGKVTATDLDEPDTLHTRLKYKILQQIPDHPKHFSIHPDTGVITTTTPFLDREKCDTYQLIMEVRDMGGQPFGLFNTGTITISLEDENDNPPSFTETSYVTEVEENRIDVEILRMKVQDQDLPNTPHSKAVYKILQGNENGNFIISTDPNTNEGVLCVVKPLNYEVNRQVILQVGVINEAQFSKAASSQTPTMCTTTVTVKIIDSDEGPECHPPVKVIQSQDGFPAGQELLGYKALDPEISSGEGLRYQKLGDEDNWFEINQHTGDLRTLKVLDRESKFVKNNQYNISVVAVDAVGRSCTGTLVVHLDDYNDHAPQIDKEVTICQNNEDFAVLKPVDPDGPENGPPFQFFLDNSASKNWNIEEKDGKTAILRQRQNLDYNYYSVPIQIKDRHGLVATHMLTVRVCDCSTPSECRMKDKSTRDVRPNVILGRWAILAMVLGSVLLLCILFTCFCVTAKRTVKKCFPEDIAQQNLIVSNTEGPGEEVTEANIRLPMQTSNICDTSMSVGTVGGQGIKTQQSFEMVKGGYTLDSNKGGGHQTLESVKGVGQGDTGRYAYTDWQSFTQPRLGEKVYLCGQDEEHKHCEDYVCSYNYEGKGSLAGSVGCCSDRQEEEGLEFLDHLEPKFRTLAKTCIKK
Described as above.

The target of assay [3] is T1, desmocollin-1 (DSC1) (human (endogenous in RKO, HT-29, KM12SM and SW620)). In words: co-IP; competition: synthetic CDH17-NLV peptide (10 μg/mL) added to the anti-CDH17 immunoprecipitation of KM12SM and SW620 lysates; Western blot for DSC1 and CDH17; only the binder purified. (In general: A western blot detects proteins with antibodies after separation by electrophoresis.)

Assay [4] has as its target Cadherin-17 (CDH17), endogenous (human (endogenous in KM12SM and SW620)) (UniProt Q12864). In words: co-IP; KM12SM and SW620 lysates immunoprecipitated with control or anti-CDH17 antibodies in the presence or absence of the CDH17-NLV peptide (10 μg/mL); Western blot for DSC1 and CDH17.
The target is the same in assay [5]. Put plainly: co-IP; KM12SM and SW620 lysates (1% Igepal, 100 mM NaCl, 2 mM MgCl2, 10% glycerol, 50 mM Tris-HCl), 1 mg lysate with Protein G-sepharose and anti-CDH17 or control antibodies for 16 h; Western blot; also after control, α2 integrin or DSC1 siRNA. The source holds these as a separate data set.

No constants are given. Whether binding was seen depends on the method and setting. In cells and extracts the contact can be indirect. Some entries that bind do so weakly or less than the wild type.

On to β-catenin (from UniProt P35222 1-781), for which the binding entry in assay [1] is given as “binds”.

B1: p120-catenin (protein, UniProt O60716 1-968)
chain: MDDSEVESTASILASVKEQEAQFEKLTRALEEERRHVSAQLERVRVSPQDANPLMANGTLTRRHQNGRFVGDADLERQKFSDLKLNGPQDHSHLLYSTIPRMQEPGQIVETYTEEDPEGAMSVVSVETSDDGTTRRTETTVKKVVKTVTTRTVQPVAMGPDGLPVDASSVSNNYIQTLGRDFRKNGNGGPGPYVGQAGTATLPRNFHYPPDGYSRHYEDGYPGGSDNYGSLSRVTRIEERYRPSMEGYRAPSRQDVYGPQPQVRVGGSSVDLHRFHPEPYGLEDDQRSMGYDDLDYGMMSDYGTARRTGTPSDPRRRLRSYEDMIGEEVPSDQYYWAPLAQHERGSLASLDSLRKGGPPPPNWRQPELPEVIAMLGFRLDAVKSNAAAYLQHLCYRNDKVKTDVRKLKGIPVLVGLLDHPKKEVHLGACGALKNISFGRDQDNKIAIKNCDGVPALVRLLRKARDMDLTEVITGTLWNLSSHDSIKMEIVDHALHALTDEVIIPHSGWEREPNEDCKPRHIEWESVLTNTAGCLRNVSSERSEARRKLRECDGLVDALIFIVQAEIGQKDSDSKLVENCVCLLRNLSYQVHREIPQAERYQEAAPNVANNTGPHAASCFGAKKGKDEWFSRGKKPIEDPANDTVDFPKRTSPARGYELLFQPEVVRIYISLLKESKTPAILEASAGAIQNLCAGRWTYGRYIRSALRQEKALSAIADLLTNEHERVVKAASGALRNLAVDARNKELIGKHAIPNLVKNLPGGQQNSSWNFSEDTVISILNTINEVIAENLEAAKKLRETQGIEKLVLINKSGNRSEKEVRAAALVLQTIWGYKELRKPLEKEGWKKSDFQVNLNNASRSQSSHSYDDSTLPLIDRNQKSDKKPDREEIQMSNMGSNTKSLDNNYSTPNERGDHNRTLDRSGDLGDMEPLKGTTPLMQDEGQESLEEELDVLVLDDEGGQVSYPSMQKI
In the case of B1, in assay [2], the binding result is on record as “binds”.
In the case of LNPAKNPSYNLVISVKDM [synthetic CDH17 peptide …], the binding entry in assay [3] is “binds”.

B2: desmocollin-1 (DSC1) (protein, UniProt Q08554 135-894)
chain: RWAPIPASLMENSLGPFPQHVQQIQSDAAQNYTIFYSISGPGVDKEPFNLFYIEKDTGDIFCTRSIDREKYEQFALYGYATTADGYAPEYPLPLIIKIEDDNDNAPYFEHRVTIFTVPENCRSGTSVGKVTATDLDEPDTLHTRLKYKILQQIPDHPKHFSIHPDTGVITTTTPFLDREKCDTYQLIMEVRDMGGQPFGLFNTGTITISLEDENDNPPSFTETSYVTEVEENRIDVEILRMKVQDQDLPNTPHSKAVYKILQGNENGNFIISTDPNTNEGVLCVVKPLNYEVNRQVILQVGVINEAQFSKAASSQTPTMCTTTVTVKIIDSDEGPECHPPVKVIQSQDGFPAGQELLGYKALDPEISSGEGLRYQKLGDEDNWFEINQHTGDLRTLKVLDRESKFVKNNQYNISVVAVDAVGRSCTGTLVVHLDDYNDHAPQIDKEVTICQNNEDFAVLKPVDPDGPENGPPFQFFLDNSASKNWNIEEKDGKTAILRQRQNLDYNYYSVPIQIKDRHGLVATHMLTVRVCDCSTPSECRMKDKSTRDVRPNVILGRWAILAMVLGSVLLLCILFTCFCVTAKRTVKKCFPEDIAQQNLIVSNTEGPGEEVTEANIRLPMQTSNICDTSMSVGTVGGQGIKTQQSFEMVKGGYTLDSNKGGGHQTLESVKGVGQGDTGRYAYTDWQSFTQPRLGEKVYLCGQDEEHKHCEDYVCSYNYEGKGSLAGSVGCCSDRQEEEGLEFLDHLEPKFRTLAKTCIKK
Take B2: the binding result in assay [4] and in assay [5] was “binds” in each case.
